Series [1] deals with EJ human bladder cancer cells. In words: Immunoblot of β-glucuronidase expression in stable EJ transfectants. The series is classed as cell-based. Conditions: whole cell lysates of stable EJ transfectants; higher. On the technique in general: A western blot detects proteins with antibodies after separation by electrophoresis.
The next series relates to 3T3 fibroblasts. In words: Surface immunofluorescence (flow cytometer) of transiently transfected 3T3 fibroblasts. The series is classed as cell-based, murine. A general note: A flow cytometer gives signals particle by particle.

B1: hβG-e-B7: human β-glucuronidase fused to Ig-like C2-type and Ig-hinge-like domains, TM and cytoplasmic tail of murine B7-1 (protein)
chain: LQGGMLYPQESPSRECKELDGLWSFRADFSDNRRRGFEEQWYRRPLWESGPTVDMPVPSSFNDISQDWRLRHFVGWVWYEREVILPERWTQDLRTRVVLRIGSAHSYAIVWVNGVDTLEHEGGYLPFEADISNLVQVGPLPSRLRITIAINNTLTPTTLPPGTIQYLTDTSKYPKGYFVQNTYFDFFNYAGLQRSVLLYTTPTTYIDDITVTTSVEQDSGLVNYQISVKGSNLFKLEVRLLDAENKVVANGTGTQGQLKVPGVSLWWPYLMHERPAYLYSLEVQLTAQTSLGPVSDFYTLPVGIRTVAVTKSQFLINGKPFYFHGVNKHEDADIRGKGFDWPLLVKDFNLLRWLGANAFRTSHYPYAEEVMQMCDRYGIVVIDECPGVGLALPQFFNNVSLHHHMQVMEEVVRRDKNHPAVVMWSVANEPASHLESAGYYLKMVIAHTKSLDPSRPVTFVSNSNYAADKGAPYVDVICLNSYYSWYHDYGHLELIQLQLATQFENWYKKYQKPIIQSEYGAETIAGFHQDPPLMFTEEYQKSLLEQYHLGLDQKRRKYVVGELIWNFADFMTEQSPTRVLGNKKGIFTRQRQPKSAAFLLRERYWKIANETRYPHSVAKSQCLENSPFTVDEQKLISEEDLADFSTPNITESGNPSADTKRITCFASGGFPKPRFSWLENGRELPGINTTISQDPESELYTISSQLDFNTTRNHTIKCLIKYGDAHVSEDFTWEKPPEDPPDSKNTLVLFGAGFGAVITVVVIVVIIKCFCKHRSCFRRNEASRETNNSLTFGPEEALAEQTVFL
With B1, the “expression level compared to eβG-e-B7 (HA band normalized to β-actin)” value in series [1] was “about 2.5 fold”. In the series with 3T3 fibroblasts (transiently transfected 3T3 cells), the “surface expression of human β-glucuronidase constructs” value is listed as “highly expressed”.

B2: mβG-e-B7: murine β-glucuronidase fused to immunoglobulin-like C2-type extracellular region, transmembrane domain and cytoplasmic tail of murine B7-1 antigen (protein)
chain: LKGGMLFPKESPSRELKALDGLWHFRADLSNNRLQGFEQQWYRQPLRESGPVLDMPVPSSFNDITQEAALRDFIGWVWYEREAILPRRWTQDTDMRVVLRINSAHYYAVVWVNGIHVVEHEGGHLPFEADISKLVQSGPLTTCRITIAINNTLTPHTLPPGTIVYKTDTSMYPKGYFVQDTSFDFFNYAGLHRSVVLYTTPTTYIDDITVITNVEQDIGLVTYWISVQGSEHFQLEVQLLDEDGKVVAHGTGNQGQLQVPSANLWWPYLMHEHPAYMYSLEVKVTTTESVTDYYTLPVGIRTVAVTKSKFLINGKPFYFQGVNKHEDSDIRGKGFDWPLLVKDFNLLRWLGANSFRTSHYPYSEEVLQLCDRYGIVVIDECPGVGIVLPQSFGNESLRHHLEVMEELVRRDKNHPAVVMWSVANEPSSALKPAAYYFKTLITHTKALDLTRPVTFVSNAKYDADLGAPYVDVICVNSYFSWYHDYGHLEVIQPQLNSQFENWYKTHQKPIIQSEYGADAIPGIHEDPPRMFSEEYQKAVLENYHSVLDQKRKEYVVGELIWNFADFMTNQSPLRVIGNKKGIFTRQRQPKTSAFILRERYWRIANETGGHGSGPRTQCFGSRPFTFVDEQKLISEEDLADFSTPNITESGNPSADTKRITCFASGGFPKPRFSWLENGRELPGINTTISQDPESELYTISSQLDFNTTRNHTIKCLIKYGDAHVSEDFTWEKPPEDPPDSKNTLVLFGAGFGAVITVVVIVVIIKCFCKHRSCFRRNEASRETNNSLTFGPEEALAEQTVFL
On to B2, for which the “expression level compared to eβG-e-B7 (HA band normalized to β-actin)” value in series [1] is “about 2.5 fold”. Also, the “surface level of membrane bound mouse β-glucuronidase compared to mβG-BGP-B7” value with 3T3 fibroblasts (transiently transfected 3T3, higher) is “about two”.
